Results are given in words; binding and its absence hold for the method and conditions named. Some entries that bind do so weakly or less than the wild type. Sequences can lack the tags named with a protein.
Target: TMC-2 (transmembrane channel-like protein 2), native, tagged with mVenus-3xFLAG at the endogenous locus (C. elegans) (UniProt Q11069)
Test: cryo-EM structure; single-particle cryo-EM of the native TMC-2 complex isolated from worms (anti-FLAG affinity, SEC, GDN, 1 mM CaCl2); cis-dimeric particles selected

B1: TMC-2 (transmembrane channel-like protein 2), native, tagged with mVenus-3xFLAG at the endogenous locus (natural protein, C. elegans, UniProt Q11069 1-1203, looked up)
chain: MPKSGAHQPLVRHDTDDGGETGQSVKSLADVSEEEIDSRMSRRSSVIADLLSLFRRSSSVLVRPHTRLGNPNFDDDDDEFDEEDDKEASKDRILKKIQQKKEIIQKLRGQPWYMKRKRRTLKVAQKHLQQQEAKVSKARLYKAEAGRRLTQASRWLDNLKIYLIPWEAKIRKIESHFGSVVSSYFTFHRWVLGVNITITFIMCMFVVIPEWLADSRTQFGDDRYNKTKAIKVMPPAVRARADELSTVWDFGGYFQYSLLFYGFYSKETFFGETIKYRVPVAYFFCNIFILGFSLFIILRKMAANNRRGTLSSGKTQQYLFNWKAFTGWDYTIGNPETAGNVYMANVIKFREAINDDKQKPSDKHPWIRFVARVLTNLFICAMYVFSIWAIMQCGTLKGEHFFAQNATAITISLITLVFPNIFDLLGKIEKLHPRNALRFQLGRVLVLYILNYYTLIYSLMLQLEHLQKEKNASDNPISALGHPGDAIGRTIRETVLPRYPVDNNPHTYYSYAPVTTTPIPATSSWTTVLPDFGPFGVYNPKASVTKDDTVFSSPVVETHMFGPNSDWNETTVNAASPTGATTRASLRMSQGGLCWETIIGQEITKLVTMDLYMTVASIFLIDFLRGLACRYLNLYWPWDLERTFPEYGEFKVAENVLHLVNNQGMIWLGLFFVPLLPMLNNIKLIILMYIRGWAAMTCNVPASQIFRASRSSNFFFALLILFLFLCTLPVGFVIASKTPSKSCGPFGNQSFFYSVITDVLHENLDKTLVNGIKYSLSPGIIIPVLVLLSLVIYFLIAMVTGLSQANQDLSFQLMVERTEEKKKIFELAGGKKKKSKDNTFGKQKPKQLLPPPTKGVSSDDDSQHNRSTAKSVSGRQFVPSLGSVSEVDHSTGEEQSSDSESTTSSLPPKLSLRQRFLVCIGWADPNKYGRHDDIEMEEGGGRLRELSTGSETDSDDEDSEKSNRDMSYRTAIQSFDQNSQSASASSSKSTTTAPSNSEMRIEITENPLHTYITPLRIEKKSSASSSSSSHQPSSSIEKQAARRLLQPISTTHNIRYGVATVENSSQDPTRPPSTDDSLGDPALHEPLWANLNPHSSYTSAMMSPIMNEVMSNDETTDDEKGRLIPDRPPIPHSPRELKRLKREKDQQSESGSKPSTPRPPRFRISMSPPRKPPSEKNDSDSSNRKYEMRVEKSPKKPKKSDND
modifications: N-glycans at N225 and N748
notes: TMC-2, C. elegans, endogenous tmc-2 gene (Wormbase B0416.1a); tag inserted prior to the stop codon; residues M1 to D1203 named; modelled 89-471, 583-813; A 3C (PreScission) site lies between mVenus and 3xFLAG; The complex was captured on anti-FLAG resin by the 3xFLAG tag, which was cut off on elution with 3C protease before SEC, mass spectrometry and cryo-EM; also called TMC-2-mVenus; …
  binding: binds

Reference: publication PMC10895266, “The structure of the Caenorhabditis elegans TMC-2 complex suggests roles of lipid-mediated subunit contacts in mechanosensory transduction” (Proceedings of the National Academy of Sciences of the …, 2024)
